Assay results taken from article PMC6053349.
These are yes or no findings as the source states them, for the method shown. In cells and extracts the contact can be indirect. Some results given as binding are weak or reduced against the parent protein; the word gives no strength. For some of these results: Tags and fused reporters may be left off the sequences shown. Blank lines part the entries; values can stand above or below the molecule they belong to.

Amino acid sequences for entries named in this document (tags omitted).
UniProt O00429: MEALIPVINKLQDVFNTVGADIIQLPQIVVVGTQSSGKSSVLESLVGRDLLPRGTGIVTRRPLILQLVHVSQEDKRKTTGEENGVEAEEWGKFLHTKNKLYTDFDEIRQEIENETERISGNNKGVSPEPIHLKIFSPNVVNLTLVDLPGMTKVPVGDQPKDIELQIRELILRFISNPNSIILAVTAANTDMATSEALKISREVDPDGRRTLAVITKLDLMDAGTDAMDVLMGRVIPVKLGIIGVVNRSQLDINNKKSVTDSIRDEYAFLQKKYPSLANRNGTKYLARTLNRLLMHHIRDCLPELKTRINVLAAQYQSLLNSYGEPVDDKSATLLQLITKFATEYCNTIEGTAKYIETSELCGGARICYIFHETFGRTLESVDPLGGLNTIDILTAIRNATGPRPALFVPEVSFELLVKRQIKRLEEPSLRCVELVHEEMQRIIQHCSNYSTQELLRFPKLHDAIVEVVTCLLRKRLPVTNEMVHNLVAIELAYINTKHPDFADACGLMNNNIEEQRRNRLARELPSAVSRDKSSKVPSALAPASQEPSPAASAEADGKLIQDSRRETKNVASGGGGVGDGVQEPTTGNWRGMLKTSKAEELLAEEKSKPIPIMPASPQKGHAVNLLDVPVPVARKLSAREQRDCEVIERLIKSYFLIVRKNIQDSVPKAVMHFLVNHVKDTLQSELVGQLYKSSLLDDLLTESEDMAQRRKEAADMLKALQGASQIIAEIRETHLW

What was measured:
[1] = target: T1, endogenous Trak1 (human (endogenous in HeLa)) (UniProt Q9UPV9); assay: co-IP; HeLa cell lysates (50 mmol/L Tris-HCl pH 7.6, 100 mmol/L NaCl, 1% IGEPAL CA-630, 0.1% Triton-X-100) immunoprecipitated with anti-Trak1 antibody or rabbit IgG control, 4 h at 4°C, protein G-Sepharose; immunoblot for Trak1, Mfn1, Mfn2, Drp1
T1 sequence: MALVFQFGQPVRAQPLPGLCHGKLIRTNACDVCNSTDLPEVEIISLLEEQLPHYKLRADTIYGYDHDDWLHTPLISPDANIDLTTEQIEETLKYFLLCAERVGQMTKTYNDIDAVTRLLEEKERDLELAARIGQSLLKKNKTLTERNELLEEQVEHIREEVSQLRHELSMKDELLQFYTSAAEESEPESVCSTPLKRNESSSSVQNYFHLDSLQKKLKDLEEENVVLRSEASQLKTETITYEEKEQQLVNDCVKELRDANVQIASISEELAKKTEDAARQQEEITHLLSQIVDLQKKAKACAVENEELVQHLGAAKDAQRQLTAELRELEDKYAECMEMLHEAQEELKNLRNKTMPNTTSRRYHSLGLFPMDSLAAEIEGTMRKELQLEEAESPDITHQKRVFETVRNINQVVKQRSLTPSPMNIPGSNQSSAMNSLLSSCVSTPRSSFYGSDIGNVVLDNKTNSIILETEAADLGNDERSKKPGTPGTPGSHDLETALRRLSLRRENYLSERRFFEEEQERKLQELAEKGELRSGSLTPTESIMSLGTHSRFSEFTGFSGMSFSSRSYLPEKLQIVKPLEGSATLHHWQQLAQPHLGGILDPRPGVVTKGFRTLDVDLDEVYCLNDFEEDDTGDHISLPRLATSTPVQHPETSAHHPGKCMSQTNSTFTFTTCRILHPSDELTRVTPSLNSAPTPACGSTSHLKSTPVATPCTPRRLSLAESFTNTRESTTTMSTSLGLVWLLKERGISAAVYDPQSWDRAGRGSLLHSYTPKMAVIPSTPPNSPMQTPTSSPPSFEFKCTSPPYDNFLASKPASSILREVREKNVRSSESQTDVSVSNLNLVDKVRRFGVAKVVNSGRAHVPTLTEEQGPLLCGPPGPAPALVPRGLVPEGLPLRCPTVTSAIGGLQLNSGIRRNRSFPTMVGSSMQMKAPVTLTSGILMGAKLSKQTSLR

[2] = target: GFP-tagged human Trak1 hyrt (residues 1-824) (human) (UniProt Q9UPV9); assay: co-IP; lysates of shTrak1 HeLa cells co-transfected with GFP-tagged and HA-tagged Trak1 constructs; immunoprecipitation with anti-HA; immunoblot with anti-HA and anti-GFP
[3] = target: T2, Myc-tagged Mfn1 (UniProt Q811U4); assay: co-IP; lysates of shTrak1 HeLa cells co-transfected with GFP-tagged and Myc-tagged constructs; immunoprecipitation with anti-Myc (9E10), 4 h at 4°C, protein G-Sepharose; immunoblot with anti-Myc and anti-GFP
T2 sequence: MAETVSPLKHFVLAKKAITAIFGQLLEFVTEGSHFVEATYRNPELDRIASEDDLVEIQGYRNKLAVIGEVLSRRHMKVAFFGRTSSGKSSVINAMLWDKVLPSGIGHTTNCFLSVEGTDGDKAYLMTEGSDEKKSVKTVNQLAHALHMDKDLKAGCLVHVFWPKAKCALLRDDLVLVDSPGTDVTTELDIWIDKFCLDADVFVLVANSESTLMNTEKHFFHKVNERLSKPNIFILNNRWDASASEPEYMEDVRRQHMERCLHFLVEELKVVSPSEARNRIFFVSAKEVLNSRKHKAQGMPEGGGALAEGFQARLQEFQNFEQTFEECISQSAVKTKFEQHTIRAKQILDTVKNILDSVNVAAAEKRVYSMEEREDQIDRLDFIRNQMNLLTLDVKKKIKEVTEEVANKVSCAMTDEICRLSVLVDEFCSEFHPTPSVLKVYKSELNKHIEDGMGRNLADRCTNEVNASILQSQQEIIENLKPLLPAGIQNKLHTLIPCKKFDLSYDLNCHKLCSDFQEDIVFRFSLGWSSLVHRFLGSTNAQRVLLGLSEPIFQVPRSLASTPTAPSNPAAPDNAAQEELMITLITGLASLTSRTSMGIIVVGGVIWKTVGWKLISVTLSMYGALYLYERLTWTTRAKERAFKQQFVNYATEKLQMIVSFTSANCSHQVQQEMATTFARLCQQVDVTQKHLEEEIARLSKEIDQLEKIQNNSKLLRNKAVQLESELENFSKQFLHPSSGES

[4] = target: T3, Myc-tagged Mfn2 (UniProt Q80U63); assay: as above
T3 sequence: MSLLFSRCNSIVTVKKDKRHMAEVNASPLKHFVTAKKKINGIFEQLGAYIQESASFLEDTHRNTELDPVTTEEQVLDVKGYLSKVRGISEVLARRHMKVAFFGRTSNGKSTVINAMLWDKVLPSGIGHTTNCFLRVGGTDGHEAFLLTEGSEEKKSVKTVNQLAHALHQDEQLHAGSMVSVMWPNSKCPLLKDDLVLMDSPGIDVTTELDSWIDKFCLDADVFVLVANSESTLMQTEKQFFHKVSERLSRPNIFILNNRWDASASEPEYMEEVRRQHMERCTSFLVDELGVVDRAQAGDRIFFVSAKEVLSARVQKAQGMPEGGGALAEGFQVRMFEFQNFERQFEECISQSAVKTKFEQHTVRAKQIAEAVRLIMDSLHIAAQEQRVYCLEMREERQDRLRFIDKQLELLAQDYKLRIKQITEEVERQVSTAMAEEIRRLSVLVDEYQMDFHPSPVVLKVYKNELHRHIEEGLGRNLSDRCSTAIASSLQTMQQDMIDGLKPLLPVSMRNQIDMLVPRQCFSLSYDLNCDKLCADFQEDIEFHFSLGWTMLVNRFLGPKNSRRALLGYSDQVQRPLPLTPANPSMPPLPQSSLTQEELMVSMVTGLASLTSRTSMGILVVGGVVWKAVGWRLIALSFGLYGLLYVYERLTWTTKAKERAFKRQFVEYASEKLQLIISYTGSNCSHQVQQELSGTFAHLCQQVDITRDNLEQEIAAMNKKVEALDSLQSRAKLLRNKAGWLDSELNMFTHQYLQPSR

- binding [1]: no binding
Molecule: endogenous dynamin-related protein 1 (Drp1) (from UniProt O00429 1-736)

- binding [2]: binds
- binding [3]: binds
- binding [4]: binds
B1: GFP-tagged human Trak1 hyrt (residues 1-824) (domain or fragment, UniProt Q9UPV9 1-824)
chain: MALVFQFGQPVRAQPLPGLCHGKLIRTNACDVCNSTDLPEVEIISLLEEQLPHYKLRADTIYGYDHDDWLHTPLISPDANIDLTTEQIEETLKYFLLCAERVGQMTKTYNDIDAVTRLLEEKERDLELAARIGQSLLKKNKTLTERNELLEEQVEHIREEVSQLRHELSMKDELLQFYTSAAEESEPESVCSTPLKRNESSSSVQNYFHLDSLQKKLKDLEEENVVLRSEASQLKTETITYEEKEQQLVNDCVKELRDANVQIASISEELAKKTEDAARQQEEITHLLSQIVDLQKKAKACAVENEELVQHLGAAKDAQRQLTAELRELEDKYAECMEMLHEAQEELKNLRNKTMPNTTSRRYHSLGLFPMDSLAAEIEGTMRKELQLEEAESPDITHQKRVFETVRNINQVVKQRSLTPSPMNIPGSNQSSAMNSLLSSCVSTPRSSFYGSDIGNVVLDNKTNSIILETEAADLGNDERSKKPGTPGTPGSHDLETALRRLSLRRENYLSERRFFEEEQERKLQELAEKGELRSGSLTPTESIMSLGTHSRFSEFTGFSGMSFSSRSYLPEKLQIVKPLEGSATLHHWQQLAQPHLGGILDPRPGVVTKGFRTLDVDLDEVYCLNDFEEDDTGDHISLPRLATSTPVQHPETSAHHPGKCMSQTNSTFTFTTCRILHPSDELTRVTPSLNSAPTPACGSTSHLKSTPVATPCTPRRLSLAESFTNTRESTTTMSTSLGLVWLLKERGISAAVYDPQSWDRAGRGSLLHSYTPKMAVIPSTPPNSPMQTPTSSPPSFEFKCTSPPYDNFLASKPASSILREVRE
